Results on 66 compounds are retold here after PubChem BioAssay AID493014 (National Center for Advancing Translational Sciences (NCATS), 2011).

This is one part of the list. The main result of the screen is listed elsewhere. These columns were measured beside it and carry no call. The list favours compounds with an active or inconclusive main result. The note in brackets gives the kind of curve behind each potency; many fits are weak.

For orientation: AC50 means the concentration giving half of the maximal activity seen.

A short description of the assay: qHTS Assay to Find Inhibitors of Chronic Active B-Cell Receptor Signaling. The note with it: ABC-DLBCL IkBa-CBG/CBR reporter, luminescence ratio (green luciferase fused to IkBa over red control in TMD8 lymphoma cells), 4 h. The procedure, abridged: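 TMD8 ABC-DLBCL cells carrying doxycycline-inducible green luciferase fused to IkappaBalpha plus unfused red luciferase were exposed to compounds (up to 46 uM) for 4 hrs at 37C. Activity came from the overlap-corrected green/red luminescence ratio.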
(qHTS replaces the single test concentration by a dilution series.)

[1] abbreviates: measured here: CBR red luminescence, cell number.
Where [2] appears, read: measured here: IkBa-CBG green luminescence.

As to `O=C(NNC1OC(CO)C(O)C(O)C1O)c1cccnc1` (configuration not stated), the AC50 under setting [1] is 22.4 µM [falling, single point].

As for `FC(F)(F)c1cccc(NC(=S)N2CCCC2)c1`, the AC50 under setting [1] is 5.01 µM [rising, single point].

Regarding `O=C(COC(=O)c1ccco1)Nc1nnc(-c2ccccc2)o1`, the concentration at half-maximal activity (AC50) under setting [1] was 25.9 µM [falling, partial curve].

As for `Fc1ccc(C2=CC(c3ccc(F)cc3)n3c(nc4ccccc43)N2)cc1` (configuration not stated), under setting [1], the AC50 is 5.62 µM [falling, partial curve].

For the compound `CCOc1ccccc1NC(=O)CSc1nc(=O)n(CCCN2CCOCC2)c2c1CCC2`, the AC50 under setting [1] is 5.8 µM [falling, full curve].

For the compound `Cc1ccc(OCC(=O)Nc2ccncc2)c(C)c1`, the AC50 under setting [1] is 35.5 µM [rising, single point].

For the compound `Clc1ccccc1Nc1nnc(-c2ccncc2)s1`, under setting [1], the AC50 is 10.3 µM [falling, partial curve].

In the case of `COc1ccc(CCNCC(O)COc2cccc(Br)c2)cc1OC` (configuration not stated), the half-maximal activity concentration (AC50) under setting [1] is 7.94 µM [falling, partial curve, poor fit].

For `Cc1cc(C)nc(NN2C(=O)C=CC2=O)n1`, under setting [1], the AC50 was 5.62 µM [rising, full curve].

With `COc1cc(C2C(C#N)=C(N)Oc3cc(N)ccc32)cc(OC)c1OC` (configuration not stated), the AC50 under setting [2] is 3.66 µM [falling, partial curve].

As to `COc1ccccc1N(CC(=O)NCCc1ccccc1)C(=O)CCC(=O)Nc1cc(C)ccn1`, under setting [1], the AC50 was 17.8 µM [falling, single point].

For the compound `N=c1c2c(-c3ccccc3)c(-c3ccccc3)n(Cc3ccco3)c2ncn1CCO`, the AC50 under setting [1] is 23.1 µM [falling, single point].

For `O=[N+]([O-])c1cccc(/C=N/Nc2cc(Cl)nc(-c3ccccc3)n2)c1`, under setting [1], the AC50 is 11.2 µM [falling, partial curve, poor fit].

Take `COc1ccc(CNC(=O)COc2cc(=O)n(C)c3ccccc23)cc1`: under setting [1], the AC50 is 35.5 µM [falling, partial curve, poor fit].

On to `COc1cc(/C=C/C(=O)OCC(=O)NCCC2=CCCCC2)cc(OC)c1OC`, for which, under setting [1], the AC50 is 1.84 µM [rising, partial curve].

As for `Nc1nc(-c2cc3c(cc2Cl)OCCO3)cs1`, the AC50 under setting [1] was 35.5 µM [falling, single point].

For the compound `COCCNC(=S)N(CCc1c(C)[nH]c2ccc(Cl)cc12)Cc1cccs1`, under setting [1], the AC50 was 22.4 µM [falling, single point].

In the case of `CCCCCC(=O)Nc1ccc(S(=O)(=O)Nc2cc(OC)nc(OC)n2)cc1`, under setting [1], the AC50 is 1.58 µM [rising, partial curve, poor fit].

In the case of `COc1ccc(C(=O)Nc2cccc(-c3cnc4ccccc4n3)c2)cc1`, the AC50 under setting [1] was 2.82 µM [falling, single point].

For the compound `OC(CNCCC(c1ccccc1)c1ccccc1)COc1ccccc1` (configuration not stated), the AC50 under setting [1] was 22.4 µM [falling, partial curve, poor fit].

Turning to `Cc1ccc(C(C)C)c(OCC(O)CN2CCc3ccccc3C2)c1` (configuration not stated), under setting [1], the AC50 is 28.2 µM [falling, partial curve, poor fit].

Turning to `CC(NC(=O)NC1CCCCC1)c1ccc2c(c1)OCO2` (configuration not stated), under setting [1], the AC50 was 0.631 µM [rising, full curve, poor fit].

For `O=c1cc(-c2ccccc2)c2cc(Cl)ccc2[nH]1`, the concentration at half-maximal activity (AC50) under setting [1] was 35.5 µM [rising, single point].

On to `O=C1NCCCC2c3c(cc(Br)c(O)c3Br)OC12N1CCCCC1` (configuration not stated), for which the AC50 under setting [1] is 16.4 µM [rising, single point].

`CCOC(=O)CC(=O)CSc1nc(C)nc2c1oc1ccccc12`: the AC50 under setting [1] is 29.1 µM [rising, partial curve, poor fit].

Take `COc1ccc(NC(=S)NCc2ccco2)c(OC)c1`: under setting [1], the AC50 was 29.1 µM [falling, single point].

Regarding `O=C(NN=C1CCN(Cc2ccccc2)CC1)c1cc(Br)ccc1O`, the AC50 under setting [1] is 2.24 µM [falling, full curve].

Consider `Cc1ccc(SC(C)c2nc(-c3cccnc3)no2)cc1` (configuration not stated), for which, under setting [1], the AC50 was 5.8 µM [falling, partial curve, poor fit].

`CCOc1ccccc1NC(=O)Cn1[nH]c(=O)c2ccccc2c1=O`: under setting [1], the AC50 was 0.708 µM [falling, full curve].

Regarding `CCOC(=O)c1ccc(NC(=S)NC(=O)c2nn(CC)cc2Br)cc1`, the AC50 under setting [1] was 29.1 µM [rising, single point].

For `COc1cccc(CC2(CO)CCCN(Cc3cc4ccccc4[nH]3)C2)c1` (configuration not stated), the AC50 under setting [1] was 22.4 µM [falling, single point].

Turning to `O=c1c2ccccc2ncn1-c1ccc(Cl)cc1`, the AC50 under setting [1] is 20 µM [falling, single point].

As for `CC(C)Oc1cc(O)c2c(=O)c(-c3ccc(O)cc3)coc2c1`, under setting [1], the AC50 is 9.2 µM [rising, partial curve].

For `COc1cc(C(=O)NCc2nnc(SCC(=O)Nc3cc(C)cc(C)c3)o2)cc(OC)c1OC`, the AC50 under setting [1] is 3.55 µM [rising, partial curve, poor fit].

Turning to `O=C(Nc1ccc(Cl)cc1)C1CCC(=O)N1Cc1ccccc1Cl` (configuration not stated), the AC50 under setting [1] is 35.5 µM [falling, single point].

As for `Cc1c(CCC(=O)NCCCn2ccnc2)c(=O)oc2cc3oc4c(c3cc12)CCCC4`, the AC50 runs as follows: under setting [1], 6.31 µM [rising, partial curve, poor fit]; under setting [2], 6.31 µM [falling, partial curve, poor fit].

For the compound `CN1C(C(=O)Nc2ccc(OC(F)(F)F)cc2)=CC(c2cccs2)=NS1(=O)=O`, under setting [1], the concentration at half-maximal activity (AC50) is 35.5 µM [falling, partial curve, poor fit].

For `CC1Cc2nc(SCC(=O)N3CCOCC3)n(-c3ccccc3)c(=O)c2S1` (configuration not stated), the AC50 under setting [1] is 18.4 µM [rising, partial curve].

Consider `Cc1cc(OCC(=O)NCc2ccccn2)cc(C)c1Br`, for which the AC50 under setting [1] was 8.2 µM [rising, partial curve, poor fit].

With `COc1cc2ccccc2cc1-c1nnc(COc2ccccc2)o1`, the AC50 under setting [1] is 3.66 µM [falling, full curve, poor fit].

On to `Cc1c(NN=C(C#N)C#N)c(=O)n(-c2ccccc2)n1C`, for which the AC50 under setting [1] was 3.55 µM [falling, partial curve, poor fit].

With `N/C(CC(=O)NC1CCCCC1)=N\OCC(=O)Nc1ccc(Cl)c(Cl)c1`, under setting [1], the AC50 is 35.5 µM [falling, single point].

With `C=C1c2cc(C)ccc2NC(=O)N1c1ccc(C)cc1`, the AC50 under setting [1] was 0.58 µM [rising, full curve, poor fit].

Regarding `CC(=O)c1ccc(NC(=O)COC(=O)c2ccccc2N=Nc2ccc(N(C)C)cc2)cc1`, under setting [1], the AC50 was 29.1 µM [falling, single point].

Turning to `Cc1nn(C)cc1/C=N/NC(=O)c1ccc2c(c1)OCO2`, under setting [1], the AC50 was 3.98 µM [falling, full curve].

As for `COc1cc(C(=S)N2CCCCC2)ccc1OCC(=O)N1CCCC1`, the AC50 under setting [1] was 13 µM [rising, partial curve, poor fit].

As to `O=C(N/N=C\c1ccc(-c2cccc(Cl)c2)o1)C(=O)NC1CCCC1`, the AC50 under setting [1] is 20 µM [rising, single point].

As for `CCCCOc1cc(C(=O)NCCN(CC)CC)c2ccccc2n1`, the AC50 under setting [1] is 20 µM [falling, partial curve, poor fit].

Take `O=C(O)c1ccccc1CSc1nnc2c(n1)[nH]c1ccccc12`: the AC50 under setting [1] is 4.47 µM [falling, full curve, poor fit].

For the compound `COc1ccc(CNC(=O)c2cc(=O)c3c(C)cc(C)cc3o2)cc1`, the AC50 under setting [1] is 14.1 µM [falling, single point].

Take `COc1ccccc1NS(=O)(=O)c1ccc(NN=C2CCCC2)c([N+](=O)[O-])c1`: under setting [1], the AC50 is 29.1 µM [falling, single point].

In the case of `O=S(=O)(c1ccccc1)N(CC1CO1)c1cccc2ccccc12` (configuration not stated), the AC50 under setting [1] was 35.5 µM [falling, single point].

Consider `CN(CC(=O)Nc1ccccc1)CC(=O)Nc1ccccc1Cl`, for which, under setting [1], the AC50 is 17.8 µM [falling, single point].

Turning to `COc1cccc(-c2nn(C)c3sc(C(=O)N4CCN(c5ccccn5)CC4)cc23)c1`, under setting [1], the AC50 was 29.1 µM [falling, single point].

Turning to `CSCCOC(=O)c1[nH]c2c(c1C)C(=O)CC(c1ccco1)C2` (configuration not stated), the concentration at half-maximal activity (AC50) under setting [1] is 3.26 µM [rising, full curve, poor fit].

For `CCOC(=O)c1c(NC(N)=O)nc2n1CCC2`, the AC50 under setting [1] was 14.1 µM [falling, partial curve, poor fit].

Regarding `CC(=O)c1cccc(NS(=O)(=O)c2ccc(N/C=C\C(=O)c3ccc(F)cc3)cc2)c1`, the concentration at half-maximal activity (AC50) under setting [1] is 7.94 µM [falling, partial curve, poor fit].

Consider `N=c1c2c(ncn1CCCO)Oc1c(ccc3ccccc13)C2c1ccccc1` (configuration not stated), for which the AC50 under setting [1] is 10 µM [falling, partial curve].

As to `O=C(OCCCN1C(=O)c2ccccc2C1=O)c1ccco1`, the AC50 under setting [1] was 16.4 µM [rising, single point].

On to `Cc1ccc(-c2nnc(-c3ccccc3)o2)cc1`, for which the AC50 under setting [1] is 10.3 µM [falling, partial curve, poor fit].

`COC(=O)c1sc(NC(=O)COc2ccccc2OC)nc1C`: the AC50 under setting [1] is 0.259 µM [falling, full curve, poor fit].

Turning to `[O-][n+]1c(/C=C/c2ccccc2)ccc2ccccc21`, under setting [1], the AC50 was 3.98 µM [falling, partial curve].

Regarding `CN(Cc1ccc(Cl)c(Cl)c1)C(=O)CN1C(=O)NC2(CCCC2)C1=O`, the AC50 under setting [1] is 0.731 µM [rising, partial curve, poor fit].

For the compound `Cc1ccc(NC(=O)COC(=O)Cc2csc(-c3cccc(F)c3)n2)cc1C`, the AC50 under setting [1] is 29.1 µM [rising, single point].

Take `C=CC(=O)Nc1ccc(CN2C(=O)N(c3c(Cl)c(OC)cc(OC)c3Cl)Cc3cnc(NCCCCN(CC)CC)nc32)cc1`: under setting [1], the AC50 is 16.4 µM [falling, single point].

In the case of `N#Cc1ccc(CSc2nnc(NC(=O)c3ccc(=O)[nH]c3)s2)cc1`, the AC50 under setting [1] was 20 µM [rising, single point].
